Experimental findings from publication PMC4028237, “GmFT2a and GmFT5a Redundantly and Differentially Regulate Flowering through Interaction with and Upregulation of the bZIP Transcription Factor GmFDL19 in Soybean” are described below.

Assay [1] deals with GmFT5a (GAL4 DNA-binding domain fusion, yeast two-hybrid bait) (soybean (Glycine max)) (UniProt E3NYV9). The experiment in a line: two-hybrid; GmFT2a or GmFT5a in pGBKT7 as baits, FD-like proteins in pGADT7 as preys; cotransformed into yeast strain Y2H; selection on SD-Leu-Trp-His-Ade with X-alpha-gal, 30°C.
For assay [2], the target named is GmFT2a (GAL4 DNA-binding domain fusion, yeast two-hybrid bait) (soybean (Glycine max)) (UniProt E3NYP3). The description is as above.
In assay [3] the target is GmFT5a fused to the N-terminal half of YFP (BiFC) (soybean (Glycine max)). The assay is described as follows: split reporter; BiFC: FTs fused to the N-terminal half (YN) and FDs to the C-terminal half (YC) of YFP, cotransformed into Arabidopsis protoplasts; YFP fluorescence by confocal microscopy.
The target of assay [4] is GmFT2a fused to the N-terminal half of YFP (BiFC) (soybean (Glycine max)). The assay is described as above.

These are yes or no findings as the source states them, for the method shown. A result given as binding can be weak or reduced; the word gives no strength. Tags and fused reporters may be left off the sequences shown. For some of these results: Binding seen in cells or lysates may run through a third protein.

B1: Arabidopsis FD (GAL4 activation domain fusion, yeast two-hybrid prey) (protein, UniProt Q84JK2 1-285)
chain: MLSSAKHQRNHRLSATNKNQTLTKVSSISSSSPSSSSSSSSTSSSSPLPSQDSQAQKRSLVTMEEVWNDINLASIHHLNRHSPHPQHNHEPRFRGQNHHNQNPNSIFQDFLKGSLNQEPAPTSQTTGSAPNGDSTTVTVLYSSPFPPPATVLSLNSGAGFEFLDNQDPLVTSNSNLHTHHHLSNAHAFNTSFEALVPSSSFGKKRGQDSNEGSGNRRHKRMIKNRESAARSRARKQAYTNELELEVAHLQAENARLKRQQDQLKMAAAIQQPKKNTLQRSSTAPF
For the molecule B1, the binding result in assay [1] and in assay [2] was “binds” throughout.

B2: Arabidopsis FD fused to the C-terminal half of YFP (BiFC) (protein, UniProt Q84JK2 1-285)
chain: B1 chain
B2: the binding result in assay [3] and in assay [4] was “binds” throughout.
